Results of single-concentration screens

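Whole-parasite assay of Trypanosoma brucei over 72 hours; the read-out is not stated. Compounds at 30 µM. Higher reads as stronger inhibition (inferred: compounds with an IC50 in retests scored well above the rest). Values scatter widely below zero; nearly all retest evidence comes from the higher of the two concentrations used. Size under these conditions: about 64,000 compounds, about 940 of them at 50% or above in at least one test.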

Each number is a percent effect as filed.
How 0% and 100% were set is not recorded. Most values in the screen are low, and negative values occur.
This is an unselected part of the compounds tested.

| # | Compound | percent effect |
|---|---|---|
| 1 | `Cc1nn(C)cc1-c1cc(C(F)(F)F)nc(NC2CCCCC2)n1` | 18.63% |
| 2 | `COc1ccc(CNC2CCc3ncnn3C2)cc1OCC1CC1` (stereo not given) | -28.92% |
| 3 | `CCOC(=O)CC1CCCCN1C(=O)c1cc(=O)[nH]c(=O)[nH]1` (stereo not given) | -16.53% |
| 4 | `CCn1nc(C)c(CCNC(=O)c2coc(CN3CCOCC3)c2)c1C` | -16.93% |
| 5 | `[H][C@]12CCCN(S(=O)(=O)c3cccc(F)c3)[C@@]1([H])CN(C(=O)C1CC1)C2` | -1.643% |
| 6 | `Cc1nc(CN2CCC2(CCCc2ccccn2)C(=O)N(C)C)co1` (stereo not given) | -14.94% |
| 7 | `O=C(c1ccc2c(c1)CCC2)N1C[C@@H](CN2CCOCC2)[C@@H](CO)C1` | 2.535% |
| 8 | `Cc1ccc(CNC(=O)N2CCN(Cc3ccsc3)CC2)n1C` | -24.97% |
| 9 | `Cc1cc(NS(=O)(=O)c2c[nH]c3ncccc23)no1` | -2.194% |
| 10 | `O=C(NCC1CC2(CO1)CN(c1nncs1)C2)C1CCC1` (stereo not given) | -63.14% |
| 11 | `CCCC1C=CCN1C(=O)c1cc(COc2ccccc2)[nH]n1` (stereo not given) | -15.17% |
| 12 | `COCCCN(Cc1ccccn1)S(=O)(=O)c1ccc(OC)cc1` | -13.6% |
| 13 | `[H][C@]12CC[C@]([H])(CN(S(C)(=O)=O)C1)N(Cc1cscn1)C2=O` | 13.77% |
| 14 | `COc1cccc2[nH]c(C(=O)N3CCNCC3C(N)=O)cc12.Cl` (stereo not given) | -2.499% |
| 15 | `[H][C@]12CC[C@]([H])(CN(S(=O)(=O)N(C)C)C1)N(Cc1ccc(F)c(F)c1)C2` | -42.84% |
| 16 | `CCn1ncc2c1C(COC)CN(Cc1cccnc1)C2.O=C(O)C(F)(F)F.O=C(O)C(F)(F)F.O=C(O)C(F)(F)F` (stereo not given) | -94.72% |
| 17 | `O=C(NCc1nnc2n1CCCC2)c1ccc(C2CCCO2)s1` (stereo not given) | -18.35% |
| 18 | `O=C(O)C(F)(F)F.O=C(O)C(F)(F)F.[H][C@@]12CN(Cc3ccsc3)CCO[C@]1([H])CN(c1ccc(C)nn1)C2` | -12.11% |
| 19 | `O=c1[nH]cc(N2CCCCC2)c(=O)[nH]1` | -10.06% |
| 20 | `Cc1cc(C)nc(NC2CCC(=O)N(C)C2)n1` (stereo not given) | -16.63% |
| 21 | `O=C(NCCN1CCCCC1CO)c1cc(-c2ccccc2)on1` (stereo not given) | 11.73% |
| 22 | `Nc1cnc(-c2cccc3ccnn23)cn1` | -28.79% |
| 23 | `O=C(c1n[nH]c2c1CCN(Cc1nccs1)C2)N1CCOCC1` | -181.3% |
| 24 | `CC(Cn1cccn1)NC(=O)c1cc(C2CC2)nc2c1cnn2C` (stereo not given) | -7.789% |
| 25 | `COc1cccc(CNC(=O)c2ccccc2-n2cc(CN)cn2)c1` | -24.04% |
| 26 | `CCOC1CCN(C(=O)c2cc(-c3ccc(Cl)cc3)on2)CC1` | 35.32% |
| 27 | `Cc1ccc(-c2nc(CN3CCc4cnc(C)nc4C3)no2)cc1` | -6.582% |
| 28 | `O=C(CC1CC1)N1CCCC2(CCC(=O)N2CC2CC2)CC1` (stereo not given) | -61.75% |
| 29 | `COCCn1c2c(ccc1=O)CC(NC(=O)c1cscn1)CC2` (stereo not given) | -19.99% |
| 30 | `CC(=O)N1CCC2(CC1)CC(NC(=O)N(C)C)c1cc(C)ccc12` (stereo not given) | -9.551% |
| 31 | `CCOc1ccc(NC(C)=O)cc1S(=O)(=O)Nc1nnc(C)s1` | -7.41% |
| 32 | `COCCSc1ccc(C(C)NC(=O)Nc2cccnc2)cc1` (stereo not given) | -21.58% |
| 33 | `O=C(CN1CCCCC1)Nc1ncc(Br)cc1Br` | -18.36% |
| 34 | `OCc1nnn2c1CN(Cc1cccnc1)CCC2` | -24.89% |
| 35 | `Cc1ccc(CN(C)C(=O)C(C)n2cncn2)o1` (stereo not given) | -58.85% |
| 36 | `COc1cnc(N2CC(N3CCOCC3)C2)nc1-c1ccnn1C` | -35.58% |
| 37 | `Cc1cccc(OC2CCN(C(=O)c3ccc4c(c3)OCO4)CC2)n1` | 5.043% |
| 38 | `CS(=O)(=O)N1CCCC(c2cccc(-c3ccccc3F)n2)C1` (stereo not given) | -15.58% |
| 39 | `CC(C)(C)CNC(=O)c1ccc(C(=O)O)nc1` | -12.94% |
| 40 | `CC(C)CCCC(C)NC(=O)c1ccc(OCC(N)=O)cc1` (stereo not given) | 7.179% |
| 41 | `CCOCC(=O)NC(C)c1cc(C)ccc1C` (stereo not given) | -44.33% |
| 42 | `COc1ccc2c(c1)CN(c1cc(N3CCCC3CO)ncn1)CC2` (stereo not given) | 27.38% |
| 43 | `Cc1ccc(C(=O)N(C)Cc2csc(C)n2)c(=O)[nH]1` | 4.877% |
| 44 | `O=C(Cc1cccc(F)c1F)NS(=O)(=O)c1cncc(Cl)c1` | -30.41% |
| 45 | `CN(C)S(=O)(=O)c1ccc(CSCC(=O)NC(C)(C)C)o1` | -20.69% |
| 46 | `CC(C)c1ccc(S(=O)(=O)Cc2nc(N)nc(N(C)C)n2)cc1` | 9.106% |
| 47 | `O=C(NCCNc1ncccn1)C1CCN(C(=O)N2CCCC2)CC1` | -3.562% |
| 48 | `COc1ccc(C2CCCN2C(=O)c2ccnc(NC3CC3)c2)cc1` (stereo not given) | -17.42% |
| 49 | `COc1ccccc1C1(C(=O)NCCN2CCOCC2)CCOCC1` | -21.88% |
| 50 | `CCCN1CCC(NC(=O)c2ccc(F)cc2I)CC1` | 80.53% |
| 51 | `c1csc(-c2noc(COCC3CCCO3)n2)c1` (stereo not given) | -46.47% |
| 52 | `CCC(O)CN1CCN(C(=O)c2cccn2Cc2cccs2)CC1` (stereo not given) | -35.36% |

The first 4 entries again:

* Cc1nn(C)cc1-c1cc(C(F)(F)F)nc(NC2CCCCC2)n1 : 18.63%
* COc1ccc(CNC2CCc3ncnn3C2)cc1OCC1CC1 (stereo not given) : -28.92%
* CCOC(=O)CC1CCCCN1C(=O)c1cc(=O)[nH]c(=O)[nH]1 (stereo not given) : -16.53%
* CCn1nc(C)c(CCNC(=O)c2coc(CN3CCOCC3)c2)c1C : -16.93%

From ChEMBL document CHEMBL3988442, “University of Dundee, Small-Polar-MMV Screening Library” (2021).